PubChem BioAssay AID1347426 (Functional Genomics Laboratory (NCATS/FGL), 2020)
Out of some 31,000 sequences screened, about 1,400 (4.5%) were called active.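 How the source made its calls: active means median seed-adjusted z-score above 1 or below -1; inactive means the rest.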 This is one part of the list.

Assay: Novel Modifiers of Survival Motor Neuron (SMN) Protein: Gene Identification via Genome-wide siRNA Screen;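 further: luminescence tracks full-length SMN protein made from the SMN2 reporter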
Details: HEK293T SMN2-luciferase reporter, siRNA knockdown, 72 h; actives lie on both sides
Method in brief: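 Genome-wide siRNA screen (10418 genes, 3 siRNAs each, 1 pmol per well) by reverse transfection in HEK293T cells stably carrying an SMN2-luciferase reporter; luminescence after 72 hours, normalized to negative-control siRNA, log10-transformed, MAD-scored.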

| Sequence | median seed-adjusted z-score |
| --- | --- |
| GGAAUGCGCUAUAAACGAATT against INPP5F | inactive: 0.118 |
| GAAUGGGACAGAGACCAAATT against NSUN6 | inactive: 0.428 |
| GUUGGAUCUUUAUCUGAUATT against ANAPC7 | inactive: -0.263 |
| ACCGUUCCCUGUGGACACATT against TRIM15 | inactive: 0.292 |
| GAGGAUAUCCCAUAUUUUATT against SERGEF | inactive: -0.308 |
| GGCUAGUACUGACAGAUGATT against CREB3 | inactive: 0.0509 |
| GCGUAUUCCUGGGUUCAGATT against NR1D2 | inactive: 0.0523 |
| CGGACAUUCGUGCAAAGAATT against PRPF6 | active: -1.06 |
| GGAACUUCCUGAGAACAUUTT against MAP3K8 | inactive: -0.533 |
| GAAACUGUCACAUACCAGATT against USP45 | inactive: -0.203 |
| GGACAGUCAUUGUAACUAUTT against GPR19 | inactive: 0.157 |
| CCUGAACGAUAAGAAGUCATT against GABRB2 | inactive: 0.288 |
| CCUUCGAGCUUGAUGGUUUTT against CYP26B1 | inactive: -0.213 |
| AGAGGUCCUUCAAAACAGATT against ENTPD6 | inactive: 0.438 |
| UCCCGGGAAUUAAAACUUATT against EPHA6 | inactive: 0.0445 |
| GCAAGAUUGUCGCAAAUUUTT against ARPC1A | inactive: -0.433 |
| CCAUUGUCACGGGCUUGUATT against ENPP3 | inactive: 0.66 |
| CGACAAUUAUGAUGCAGAATT against ADPRHL1 | inactive: 0 |
| GGUAUACACUGAAUAUCCUTT against LCP1 | inactive: -0.386 |
| CACUUGAGGAGUUACUGAATT against TADA3L | inactive: 0.00625 |
| GCUGUACACCGGCAUCGUATT against SLC5A5 | active: 1.01 |
| CAGUUUAUCUCAGACAUCUTT against CD9 | active: -1.02 |

| Sequence | median seed-adjusted z-score |
| --- | --- |
| GGACAGAGUUAGAGAUUGATT against PARP9 | inactive: -0.526 |
| CAAGAAUGUUACUAACAAUTT against TPM4 | inactive: -0.407 |
| CAGCAAUUCGUGGAGCUCATT against STX4 | inactive: 0.759 |
| ACGUGGAGCUCUUAGACAATT against AP1S1 | active: -1.04 |
| CGGCCGAGUUUGUCCCUUATT against MPP2 | inactive: 0.0496 |
| GGUUGAACCUCGAAGAUCATT against PARL | inactive: -0.0659 |
| GCAAAUGAGUGUGACCUAATT against RAB38 | inactive: -0.165 |
| GAACCACAAGGAGAAGUUUTT against PSMC3 | inactive: -0.701 |
| GGAUAUAAGGUACUCUACATT against CNTN1 | inactive: -0.796 |
| AGACUAAACUACUCUCGAATT against WDR46 | inactive: -0.136 |
| GUUGAUAGGUUGUAUACAATT against B4GALT6 | inactive: 0.224 |
| CGUCAUCACAGUCAACUAUTT against NLGN1 | inactive: 0.187 |
| GUAUCAACCAAAGUAUAGATT against ESCO2 | inactive: 0 |
| CAUCUUGCAUUACAACAUATT against DLGAP1 | inactive: 0.357 |
| CGGAAUCAAUGAUCCUGUATT against RBM22 | inactive: 0.0259 |
| GGACGGUUCGUACCUAGUATT against PPTC7 | inactive: 0.49 |
| GGAGACUUUGAUUCUAUUATT against TPK1 | inactive: 0.521 |
| ACACUCUCAUGGAAUCAGATT against MEOX1 | inactive: 0.0171 |
| GCAAGACCUAUGAAACGAUTT against CADPS | inactive: 0.551 |
| GGAGCUACGCUGUCCACAUTT against FUT4 | inactive: -0.24 |
| CCCGGAGCCUAUCAGCAAATT against NEBL | inactive: 0.0769 |
| CGAUGUCAACUGCUCGGUUTT against CTSC | inactive: 0 |

| Sequence | median seed-adjusted z-score |
| --- | --- |
| CAUGGGAGGUGACACGGAATT against KLHL25 | inactive: -0.0146 |
| GGACCGCUUUUACAAUGCATT against MAP3K5 | inactive: -0.285 |
| CUGUCUAUUUGUUCCCUUUTT against UBE2E3 | inactive: -0.0585 |
| GCUUUUCACCAAAUUGCAATT against MARCO | inactive: 0.137 |
| GGACAUUACCACAAUGGAATT against UGT8 | inactive: 0 |
| GGUUAACAAUAGUUUAUUATT against MUTED | inactive: 0.00377 |
| UGGCGACUUCAGUAAGCUATT against AKR1C2 | inactive: -0.109 |
| CGUCUAUGCAACGACCUGATT against PACSIN1 | inactive: -0.681 |
| GCUCGGAACCUAGACAAGATT against DNAJC11 | inactive: 0.148 |
| AGGUGGGAUUCUAUCCAAATT against USF1 | inactive: 0.16 |
| CAGUCACUGCACUACAGAATT against ATF7 | inactive: 0.903 |
| CCCUUUUGUUUCUCGGAGATT against ERBB4 | inactive: 0.166 |
| GACUGAGGUUUGCUCGAAATT against KCNQ5 | inactive: 0.0191 |
| GAAUGAAUCUACCACCUUUTT against DNTTIP1 | inactive: -0.33 |
| GGAAGUUGUUCAACGAGAUTT against MLPH | active: -1.2 |
| GGAACACGCUGACAGGACATT against FZR1 | inactive: 0.729 |
| CCAUGACCAUAUGAAUCUATT against LIPT1 | inactive: 0.552 |
| CUCCGACAAUUCAACCAGATT against HNF1B | inactive: -0.609 |
| CAGAGCUAAUUUAACUAAATT against ZNF286A | inactive: 0.0368 |
| GGAUGUCAAUGAUGAUUUUTT against DGUOK | inactive: 0.0168 |
| GGACGACUCUGAUCUGGAUTT against DYNC1I1 | inactive: -0.716 |
| CAGUUAACUUAAUAGGUGATT against ADAM30 | inactive: 0.0576 |

| Sequence | median seed-adjusted z-score |
| --- | --- |
| GCCGUAUAAGUGUCAAGCATT against ZNF57 | inactive: 0 |
| GUUUAAGAGAAGUCGUUUATT against KIAA1804 | inactive: -0.211 |
| GCAGAGUCAUGACCAGGGATT against CHST6 | inactive: 0.372 |
| GGAUCCUAAUAUACAUGAATT against IL18R1 | inactive: -0.206 |
| GGAGUUAAUUUGAUUGGGATT against VCAM1 | inactive: 0.19 |
| GGAAAAUACGAACUUUUAATT against GTF2H3 | inactive: 0.356 |
| CUCUUUAGCCGCUUCAUUATT against FMNL1 | inactive: -0.3 |
| CAUCUUAUCAGGCAUCAGATT against ZNF165 | inactive: 0.602 |
| CAGACUUGGGUGAAAUAUATT against CCL20 | inactive: -0.204 |
| GAAGUUUGAUGGGACAAGATT against CD22 | inactive: -0.448 |
| GCCCAUAUCUGCUUAGUCATT against PELO | inactive: 0.394 |
| GGAACCUGGUGACCAUAGATT against ANPEP | inactive: 0.252 |
| GGAAUGCUCCAAAAUGGGATT against FKBP1B | inactive: -0.561 |
| GCUGGAAAGAUUAUCUAUATT against APOL6 | inactive: -0.167 |
| CGACCUACCGAGAAGAAAATT against GJB3 | inactive: -0.198 |
| CCUUACGAAUUGGAGCUAATT against TNPO3 | inactive: 0.577 |
| GGAAGAGACUCAAGGCCUATT against 8-Mar | inactive: -0.106 |
| CCAGCUCUUUCGUAUCUUUTT against CDK3 | inactive: 0.000485 |
| GCUGUACAGUUUAGCUGUATT against ORC6L | inactive: 0 |
| GGGUAACGGUUGUUGAUGUTT against UGDH | inactive: 0.674 |
| GCCCAUUACUUUACCACUUTT against METTL4 | inactive: 0.244 |
| CCCAUUCCCUGUGCUCCAATT against CARD10 | inactive: -0.929 |

| Sequence | median seed-adjusted z-score |
| --- | --- |
| CAUUGUGAAUUGCACGGUGTT against LYPD1 | inactive: -0.0713 |
| AGACGAAGGUGCUGAAACATT against AP2S1 | inactive: 0.146 |
| GCAAUUACAUCGAGAUCAUTT against WNT3 | inactive: -0.839 |
| CUCCUUCUAUCUGCCCAAATT against ADAMTS15 | inactive: 0.765 |
| ACCGGGUGCUGAUCAUGAATT against ABHD14B | inactive: -0.175 |
| GGAAGAUCGAAGUAGGUGATT against MDS1 | inactive: 0.0345 |
| GAAGGUGAUUGGGACAAAATT against MRPS17 | inactive: -0.313 |
| CGUGUACACCCUAAACCUUTT against P2RY6 | inactive: 0.00327 |
| CACCUUUCCUGGUACCAAATT against ENTPD5 | inactive: -0.355 |
| CAGACGAAUUUGUCUUUGATT against GIPC2 | inactive: -0.0367 |
| CAGGCAUUCUUACACCAAUTT against HSD17B6 | inactive: 0.573 |
| CCGUGACCGAGUCUCUUCATT against ENO1 | inactive: 0.0766 |
| CCGUAACCGUUUGUAUGGATT against MBNL2 | inactive: -0.675 |
| GACCUUCUACAAACAAGAATT against ADAT2 | inactive: 0.604 |
| AGACCCAGGUGAUCGCCUATT against HAAO | inactive: 0.214 |
| GGUGGUGAAUGAAGGUUCATT against HINT1 | inactive: 0.873 |
| GAACUAUGUUGACUGGAUATT against C1S | inactive: -0.561 |
| CGCUCAGGAUUUUAGUUCUTT against HOXC6 | inactive: -0.137 |
| CCCUAUCUAUCAUCUAGCATT against SMOX | inactive: -0.148 |

A different layout for some results above:
Sequence | median seed-adjusted z-score
GCAAUUACAUCGAGAUCAUTT against WNT3 | inactive: -0.839
CUCCUUCUAUCUGCCCAAATT against ADAMTS15 | inactive: 0.765
ACCGGGUGCUGAUCAUGAATT against ABHD14B | inactive: -0.175
GGAAGAUCGAAGUAGGUGATT against MDS1 | inactive: 0.0345
GAAGGUGAUUGGGACAAAATT against MRPS17 | inactive: -0.313
